The campaign covered roughly 390,000 compounds. About 760 (0.19%) were called active. Inconclusive means that the source gave no clear call. Such entries were picked first, then a sample of the others. Calls come from the whole dose curve; as a rule, active = well fitted inhibition curve with a large enough effect; inconclusive = small, poorly fitted or top-dose-only effect; inactive = flat fitted curve, though single readings scatter. A potency beside an inconclusive call is a rough fit, not a confirmed value.
Assay: qHTS for Inhibitors of Vif-A3F Interactions: qHTS; note: nearly all actives have a fitted effect of over 65% in size
Settings: HeLa A3F-eYFP + Vif (tagged APOBEC3F with the HIV-1 protein that degrades it), YFP fluorescence increase; series mostly up to 46.1 µM
Method in brief: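 Fluorescence increase (Ex 488/Em 500-530) after overnight compound treatment at 37 deg C flags inhibition of Vif-driven A3F-eYFP loss in stable HeLa A3F-eYFP/Vif cells seeded overnight beforehand.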
Potency is the fitted concentration of half-maximal effect.

Compound | Potency
Cc1ccc(C)c(N2CCN(C(=O)Cn3c(-c4cccs4)cc4ccccc43)CC2)c1 | inactive
COc1ccc(/C=C2\SC(=O)N(CCNC(=O)Cn3[nH]c(=O)c4ccccc4c3=O)C2=O)cc1 | inconclusive: 20 µM [inhibitor, partial curve, poor fit]
N#CCc1c(C#N)c(N)nc(N2CCN(c3ccc(F)cc3)CC2)c1C#N | inconclusive: 35.5 µM [inhibitor, single point]
Cc1cc(C)c(-c2noc(C(=O)OC(C)(C)C)c2C(=O)OC(C)(C)C)c(C)c1 | inconclusive: 8.91 µM [inhibitor, partial curve, poor fit]
O=C(Nc1ccccc1Br)C1CC(=O)N(c2ccc3c(c2)OCCO3)C1 (stereo not drawn) | inactive
CCN(CC(=O)Nc1c(F)cccc1F)C(=O)c1ccc(N2C(=O)c3ccccc3C2=O)cc1 | inconclusive: 35.5 µM [inhibitor, single point]
CCC(=O)C1=C(c2cccc([N+](=O)[O-])c2)N(C(=O)CC)n2c(nnc2-c2ccccc2)S1 | inconclusive: 25.1 µM [inhibitor, single point]
Cc1cc(S(=O)(=O)NCc2ccco2)c(C)cc1Cl | inactive
Cc1ccc(NC(=O)CSc2ccccc2NC(=O)c2cccc(Cl)c2)cc1Cl | active: 11.2 µM
CCc1ccc(NC(=O)COC(=O)c2cccs2)cc1 | inconclusive: 35.5 µM [inhibitor, single point]
C#CCOCCOCCOCCNc1nc(N2CCN(C(=O)CCCCCCCCCCNC(=O)[C@@H](CCC(=O)O)n3cc(CCCCCN)nn3)CC2)nc(N2CCN(C(=O)CCCCCCCCCCNC(=O)[C@H]([C@@H](C)CC)n3cc(CCCCCN)nn3)CC2)n1 | inactive
CC(=O)Oc1c(Cl)cc(Cl)cc1/C=C/c1ccc2ccccc2n1 | inconclusive: 22.4 µM [inhibitor, single point]
COc1cccc(C(=O)/C=C/c2ccc(N3CCCCC3)c([N+](=O)[O-])c2)c1 | inactive
CCCCNC(=S)N/N=C1\CCCCc2ccccc21 | inconclusive: 22.4 µM [inhibitor, single point]
C/C(=N\NC(=O)c1cccc(C)c1)c1ccc(N2CCOCC2)cc1 | inconclusive: 35.5 µM [inhibitor, single point]
O=C(O)CN1C(=O)/C(=C\c2cccc(OCc3ccccc3)c2)SC1=S | inactive
CCOC(=O)C1(Cc2ccc(Cl)cc2)CCN(C(C)Cc2ccc(O)c(OC)c2)CC1 (stereo not drawn) | inactive
S=c1[nH]nc(COc2ccccc2)n1/N=C/c1cccs1 | inactive
COC(=O)c1sccc1NC(=S)NCc1ccc(Cl)cc1 | inconclusive: 31.6 µM [inhibitor, single point]
CCN(CC)CCCNc1ccc2ncn3c4ccc(O)cc4c(=O)c1c23 | active: 22.4 µM
COc1ccccc1N(C(=O)c1snc(C(N)=O)c1N)C(C(=O)NC1CCCCC1)c1cccc(OC)c1OC (stereo not drawn) | inactive
Cc1nn(C)cc1N1C(=O)c2cccc3c(N)ccc(c23)C1=O | inconclusive: 3.55 µM [inhibitor, single point]

Compound | Potency
N#Cc1sc2nc(-c3cccs3)cc(-c3ccc(Cl)cc3)c2c1N | inconclusive: 14.1 µM [inhibitor, partial curve, poor fit]
COc1ccc(C(=O)N2CCc3c([nH]c4ccccc34)C2C(F)(F)F)cc1 (stereo not drawn) | inactive
COc1ccc(NC(=O)C(=O)NCCC2CCCCN2S(=O)(=O)c2ccc(F)cc2)cc1 (stereo not drawn) | inconclusive: 3.16 µM [inhibitor, full curve, poor fit]
O=C(CCN1C(=O)C2CCCCC2C1=O)Nc1ccc(F)c(F)c1F (stereo not drawn) | inconclusive: 35.5 µM [inhibitor, single point]
CC1CC(C)CN(c2nc(N(C)c3ccccc3)nc(N)c2[N+](=O)[O-])C1 (stereo not drawn) | inconclusive: 25.1 µM [inhibitor, partial curve, poor fit]
COc1ccc(CCNc2ncnc3c2c(C)c(C)n3CCCN(C)C)cc1OC | inactive
CC(=O)NC1C(=O)N(CCN2CCOCC2)c2ccc(Br)cc21 (stereo not drawn) | inactive
O=Cc1s/c(=N\S(=O)(=O)c2ccccc2)n(CCCCl)c1Cl | active: 28.2 µM
CC(C)(C)c1ccc(Oc2nc3ccccn3c(=O)c2/C=C(\C#N)c2nc3ccccc3[nH]2)cc1 | inconclusive: 25.1 µM [inhibitor, single point]
Oc1ccc(Cc2ccccc2)c2cccnc12 | inconclusive: 35.5 µM [inhibitor, single point]
Cc1ccc(NC(=O)c2cccs2)cc1NC(=O)c1ccc(F)cc1 | inactive
O=C(Nc1cccnc1)C(Cc1ccccc1)n1cccc1 (stereo not drawn) | inconclusive: 20 µM [inhibitor, partial curve, poor fit]
CCN(Cc1ccc(OC)c(F)c1)C(=O)C1CCCO1 (stereo not drawn) | inconclusive: 5.62 µM [inhibitor, single point]
CCOC(=O)C1=C(C)N(c2ccc(OCC)cc2)C(=O)/C1=C\c1ccco1 | inconclusive: 35.5 µM [inhibitor, single point]
N#CC(C#N)=Cc1cnc(N2CCN(c3ccccc3)CC2)s1 | inconclusive: 10 µM [inhibitor, partial curve, poor fit]
C=C(C)CNC(=S)N/N=C1\CCCCc2ccccc21 | inconclusive: 5.01 µM [inhibitor, full curve, poor fit]
COCCCNC(=O)c1c(F)c(F)c(F)c(F)c1F | inconclusive: 5.62 µM [inhibitor, single point]
O=C(C1CCN(C2CCN(Cc3cccc4c3OCO4)CC2)CC1)N1CCOCC1 | inconclusive: 0.794 µM [inhibitor, partial curve, poor fit]
Cc1ccc(NC(=O)c2c(C(=O)Nc3ccccc3)sc3nc(C)cc(=O)n23)c(C)c1 | inconclusive: 35.5 µM [inhibitor, partial curve, poor fit]
CN(C)S(=O)(=O)c1cccc(NC(=O)COC(=O)c2ccc3ccccc3n2)c1 | inactive
O=C(CCC(=O)Nc1cc(C(F)(F)F)ccc1Cl)N/N=C\c1cc([N+](=O)[O-])ccc1O | inactive

Part of the list above, reformatted.
Compound,Potency
COc1ccc(C(=O)N2CCc3c([nH]c4ccccc34)C2C(F)(F)F)cc1 (stereo not drawn),inactive
COc1ccc(NC(=O)C(=O)NCCC2CCCCN2S(=O)(=O)c2ccc(F)cc2)cc1 (stereo not drawn),"inconclusive: 3.16 µM [inhibitor, full curve, poor fit]"
O=C(CCN1C(=O)C2CCCCC2C1=O)Nc1ccc(F)c(F)c1F (stereo not drawn),"inconclusive: 35.5 µM [inhibitor, single point]"
CC1CC(C)CN(c2nc(N(C)c3ccccc3)nc(N)c2[N+](=O)[O-])C1 (stereo not drawn),"inconclusive: 25.1 µM [inhibitor, partial curve, poor fit]"
COc1ccc(CCNc2ncnc3c2c(C)c(C)n3CCCN(C)C)cc1OC,inactive
CC(=O)NC1C(=O)N(CCN2CCOCC2)c2ccc(Br)cc21 (stereo not drawn),inactive
O=Cc1s/c(=N\S(=O)(=O)c2ccccc2)n(CCCCl)c1Cl,active: 28.2 µM
CC(C)(C)c1ccc(Oc2nc3ccccn3c(=O)c2/C=C(\C#N)c2nc3ccccc3[nH]2)cc1,"inconclusive: 25.1 µM [inhibitor, single point]"
Oc1ccc(Cc2ccccc2)c2cccnc12,"inconclusive: 35.5 µM [inhibitor, single point]"

— PubChem BioAssay AID602313 (National Center for Advancing Translational Sciences (NCATS), 2012)
